Data on eleven targets can be found in the supplement of paper PMC12819154, “High-throughput peptide-centric local stability assay extends protein–ligand identification to membrane proteins, tissues and bacteria” (Nature Structural & Molecular Biology, 2025).

Protein sequences, listed by entry. Tags and fused reporters are not part of them. Lines headed by an entry give the natural chain unless they say otherwise; changes in a name come on top.
UniProt Q9BQA5: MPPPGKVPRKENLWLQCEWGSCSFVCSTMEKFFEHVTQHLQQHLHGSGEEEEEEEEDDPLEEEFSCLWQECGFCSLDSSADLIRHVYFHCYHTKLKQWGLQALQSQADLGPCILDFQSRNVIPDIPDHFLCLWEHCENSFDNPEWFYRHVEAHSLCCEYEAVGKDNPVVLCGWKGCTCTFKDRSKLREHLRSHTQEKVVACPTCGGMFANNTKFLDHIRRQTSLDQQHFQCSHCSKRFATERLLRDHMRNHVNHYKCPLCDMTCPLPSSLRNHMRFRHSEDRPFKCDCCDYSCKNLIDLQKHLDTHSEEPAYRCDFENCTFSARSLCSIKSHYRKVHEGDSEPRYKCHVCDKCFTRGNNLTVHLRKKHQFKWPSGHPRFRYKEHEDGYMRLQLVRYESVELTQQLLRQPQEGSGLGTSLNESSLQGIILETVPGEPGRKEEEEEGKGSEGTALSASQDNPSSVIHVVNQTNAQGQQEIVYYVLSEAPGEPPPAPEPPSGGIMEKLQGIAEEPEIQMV
UniProt Q9BU89: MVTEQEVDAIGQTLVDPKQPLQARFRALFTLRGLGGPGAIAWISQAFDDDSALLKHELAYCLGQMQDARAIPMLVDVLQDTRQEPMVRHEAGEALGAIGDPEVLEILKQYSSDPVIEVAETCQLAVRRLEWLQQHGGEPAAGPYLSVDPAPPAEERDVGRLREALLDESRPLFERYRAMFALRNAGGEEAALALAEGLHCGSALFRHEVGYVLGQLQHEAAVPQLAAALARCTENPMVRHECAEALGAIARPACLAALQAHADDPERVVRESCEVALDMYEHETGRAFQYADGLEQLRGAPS
UniProt Q9BW60: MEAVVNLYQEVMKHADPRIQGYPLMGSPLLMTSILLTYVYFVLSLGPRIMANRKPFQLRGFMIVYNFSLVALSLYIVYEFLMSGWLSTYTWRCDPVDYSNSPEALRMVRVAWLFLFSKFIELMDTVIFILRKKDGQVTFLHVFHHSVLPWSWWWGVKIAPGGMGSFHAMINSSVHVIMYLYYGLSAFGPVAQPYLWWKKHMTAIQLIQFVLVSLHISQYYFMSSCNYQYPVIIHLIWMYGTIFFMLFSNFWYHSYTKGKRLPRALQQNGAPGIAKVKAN
UniProt Q9BSK1: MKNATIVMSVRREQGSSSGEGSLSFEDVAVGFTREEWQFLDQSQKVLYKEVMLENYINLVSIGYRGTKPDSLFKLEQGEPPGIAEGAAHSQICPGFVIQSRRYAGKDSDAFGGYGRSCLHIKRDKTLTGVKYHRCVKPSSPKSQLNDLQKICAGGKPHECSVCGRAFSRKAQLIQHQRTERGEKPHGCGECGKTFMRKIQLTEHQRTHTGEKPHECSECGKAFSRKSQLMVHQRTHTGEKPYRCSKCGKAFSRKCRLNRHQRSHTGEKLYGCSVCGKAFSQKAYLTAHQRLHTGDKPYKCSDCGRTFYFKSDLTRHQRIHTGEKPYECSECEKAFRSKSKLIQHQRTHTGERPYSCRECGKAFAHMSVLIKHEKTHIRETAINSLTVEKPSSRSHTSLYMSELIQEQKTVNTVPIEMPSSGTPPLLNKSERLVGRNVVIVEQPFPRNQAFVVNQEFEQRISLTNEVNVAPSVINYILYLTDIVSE
UniProt Q99755: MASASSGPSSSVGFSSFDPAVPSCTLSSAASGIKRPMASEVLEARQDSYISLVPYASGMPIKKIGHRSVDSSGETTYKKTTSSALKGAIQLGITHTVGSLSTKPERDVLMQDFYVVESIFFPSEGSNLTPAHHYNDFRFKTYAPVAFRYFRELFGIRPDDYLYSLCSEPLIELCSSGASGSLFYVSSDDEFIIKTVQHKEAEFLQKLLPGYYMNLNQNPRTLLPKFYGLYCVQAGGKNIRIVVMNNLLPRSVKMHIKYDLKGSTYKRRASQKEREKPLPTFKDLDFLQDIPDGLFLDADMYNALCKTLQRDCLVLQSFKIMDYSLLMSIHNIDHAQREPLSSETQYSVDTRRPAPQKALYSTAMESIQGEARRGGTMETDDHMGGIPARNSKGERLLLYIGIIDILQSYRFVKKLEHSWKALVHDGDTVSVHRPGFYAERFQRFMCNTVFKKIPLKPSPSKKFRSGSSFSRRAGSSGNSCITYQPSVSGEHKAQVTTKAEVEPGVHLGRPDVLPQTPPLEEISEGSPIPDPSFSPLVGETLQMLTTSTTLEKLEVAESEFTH
UniProt Q99575: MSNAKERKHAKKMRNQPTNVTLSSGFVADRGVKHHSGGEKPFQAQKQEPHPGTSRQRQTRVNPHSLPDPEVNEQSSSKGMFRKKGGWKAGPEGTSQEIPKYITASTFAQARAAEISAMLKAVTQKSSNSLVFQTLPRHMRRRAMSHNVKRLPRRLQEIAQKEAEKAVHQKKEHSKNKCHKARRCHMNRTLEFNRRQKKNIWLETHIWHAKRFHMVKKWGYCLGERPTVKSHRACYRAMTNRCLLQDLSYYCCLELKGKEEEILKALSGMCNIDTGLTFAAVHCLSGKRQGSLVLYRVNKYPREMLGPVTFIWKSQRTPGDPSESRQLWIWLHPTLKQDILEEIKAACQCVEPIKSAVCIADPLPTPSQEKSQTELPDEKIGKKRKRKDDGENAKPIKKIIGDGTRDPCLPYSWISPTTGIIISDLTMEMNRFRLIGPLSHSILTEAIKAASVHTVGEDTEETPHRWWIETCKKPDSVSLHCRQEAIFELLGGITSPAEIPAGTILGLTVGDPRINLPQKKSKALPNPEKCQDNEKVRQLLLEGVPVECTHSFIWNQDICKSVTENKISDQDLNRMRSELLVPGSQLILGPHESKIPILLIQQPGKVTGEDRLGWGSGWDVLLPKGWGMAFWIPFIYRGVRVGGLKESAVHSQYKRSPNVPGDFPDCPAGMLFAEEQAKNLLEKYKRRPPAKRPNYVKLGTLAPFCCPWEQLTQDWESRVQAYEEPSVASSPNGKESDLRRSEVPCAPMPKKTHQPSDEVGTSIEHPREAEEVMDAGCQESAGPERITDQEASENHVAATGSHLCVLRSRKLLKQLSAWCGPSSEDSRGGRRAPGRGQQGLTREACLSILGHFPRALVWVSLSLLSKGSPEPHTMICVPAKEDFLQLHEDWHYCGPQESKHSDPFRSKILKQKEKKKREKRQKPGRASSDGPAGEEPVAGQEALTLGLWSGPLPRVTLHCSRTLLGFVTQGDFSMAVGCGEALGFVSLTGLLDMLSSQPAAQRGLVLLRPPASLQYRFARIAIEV
UniProt Q9BTT4: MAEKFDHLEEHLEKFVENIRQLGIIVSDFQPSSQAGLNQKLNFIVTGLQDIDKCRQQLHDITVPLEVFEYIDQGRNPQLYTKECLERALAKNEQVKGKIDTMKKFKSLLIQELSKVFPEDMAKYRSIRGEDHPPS
UniProt Q99909, whole entry: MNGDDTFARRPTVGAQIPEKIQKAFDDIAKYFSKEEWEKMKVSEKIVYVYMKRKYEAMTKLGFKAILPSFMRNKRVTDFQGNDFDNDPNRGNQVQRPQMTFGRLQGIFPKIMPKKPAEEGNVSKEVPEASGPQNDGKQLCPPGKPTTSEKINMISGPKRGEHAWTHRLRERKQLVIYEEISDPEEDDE
UniProt Q9BU19: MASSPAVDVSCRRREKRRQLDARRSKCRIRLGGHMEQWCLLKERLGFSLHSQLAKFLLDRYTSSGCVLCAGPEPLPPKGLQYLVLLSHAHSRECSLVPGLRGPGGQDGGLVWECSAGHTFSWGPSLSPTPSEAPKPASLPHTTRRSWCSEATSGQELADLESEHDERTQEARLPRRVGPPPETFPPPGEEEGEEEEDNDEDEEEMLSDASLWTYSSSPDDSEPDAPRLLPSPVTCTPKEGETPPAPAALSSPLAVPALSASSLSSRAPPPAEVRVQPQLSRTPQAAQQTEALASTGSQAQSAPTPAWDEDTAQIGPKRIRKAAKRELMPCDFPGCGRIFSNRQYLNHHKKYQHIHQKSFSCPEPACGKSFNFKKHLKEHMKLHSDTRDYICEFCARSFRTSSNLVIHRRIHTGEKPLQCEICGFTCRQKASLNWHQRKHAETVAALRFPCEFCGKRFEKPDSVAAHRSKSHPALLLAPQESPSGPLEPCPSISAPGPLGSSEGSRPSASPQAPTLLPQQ
UniProt Q9BTV6: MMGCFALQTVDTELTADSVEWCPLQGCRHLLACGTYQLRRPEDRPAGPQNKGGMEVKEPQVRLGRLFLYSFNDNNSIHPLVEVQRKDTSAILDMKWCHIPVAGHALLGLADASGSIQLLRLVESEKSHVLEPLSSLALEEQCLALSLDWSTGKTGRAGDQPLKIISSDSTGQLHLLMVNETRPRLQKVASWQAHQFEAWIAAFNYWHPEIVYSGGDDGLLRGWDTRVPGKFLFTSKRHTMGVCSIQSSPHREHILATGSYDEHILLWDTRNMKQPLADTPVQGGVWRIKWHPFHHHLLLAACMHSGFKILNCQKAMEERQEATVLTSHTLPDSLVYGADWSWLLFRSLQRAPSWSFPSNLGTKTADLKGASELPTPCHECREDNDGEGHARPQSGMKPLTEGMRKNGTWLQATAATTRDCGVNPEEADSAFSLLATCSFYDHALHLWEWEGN

Some of the results follow. Small differences around the control level are noise.

Compound in this test: CN[C@@H]1C[C@H]2O[C@@](C)([C@@H]1OC)n1c3ccccc3c3c4c(c5c6ccccc6n2c5c31)C(=O)NC4 [staurosporine]
The experiment in a line: log2 fold change of tryptic peptide abundance, ligand vs vehicle (limited proteolysis) (log2 ratio); higher = more trypsin-susceptible (destabilized). Conditions: ligand concentration: 20 uM; sample: K562 cleared lysate; digestion: 4 min, 22 C (HT-PELSA RT4min, Orbitrap Astral).
In the case of “HINFP (peptide sequence: YKEHEDGYMR, peptide start residue: 381) (UniProt Q9BQA5)”, the log2 fold change is -1.16. For “DOHH (peptide sequence: ESCEVALDMYEHETGR, peptide start residue: 271) (UniProt Q9BU89)” the value was -0.115; for “ELOVL1 (peptide sequence: ALQQNGAPGIAK, peptide start residue: 264) (UniProt Q9BW60)”, -0.121. The result for “UniProt Q9BSK1 (peptide sequence: KSQLMVHQRTHTGEK, peptide start residue: 226)” reads 0.259; that for “PIP5K1A (peptide sequence: KIPLKPSPSK, peptide start residue: 452) (UniProt Q99755)”, 0.994. The result for “POP1 (peptide sequence: NQPTNVTLSSGFVADR, peptide start residue: 15) (UniProt Q99575)” reads -0.142; that for “MED10 (peptide sequence: SLLIQELSK, peptide start residue: 107) (UniProt Q9BTT4)”, 0.163; that for “UniProt Q99973 (peptide sequence: DPGVLSFLR, peptide start residue: 2432)”, -0.612.

With “UniProt Q99909 (peptide sequence: AILPSFMR, peptide start residue: 65)”, the log2 fold change was 0.275. For “ZNF692 (peptide sequence: LGGHMEQWCLLK, peptide start residue: 31) (UniProt Q9BU19)”, the log2 fold change stood at 0.289. On to “UniProt Q9BTV6 (peptide sequence: GASELPTPCHECR, peptide start residue: 369)”, for which the log2 fold change is -0.181.
